Laboratory results from US7947715B2, “Isoxazoline compound and pesticide” (Nissan Chemical Industries, Ltd., priority 2006, dated 2011).
Some entries share one result that the patent states for a list of compounds. For at least one compound, name, drawing or mass did not settle the structure.

Test system: cabbage moth (Plutella xylostella)
Assay: Insecticidal test against cabbage moth (leaf dip)
Format: in vivo
Settings: second instar larva, after 6 days

Structure (SMILES): O=C(NCc1ccc(C2=NOC(c3cc(Cl)cc(Cl)c3)(C(F)(F)F)C2)cc1)C1CCOC1 (mixture of isomers) [2-007]
- insecticidal rate (rate of dead insects) (100 ppm (*)): ≥ 80%

Structure (SMILES): O=C(CC1C=CCC1)NCc1ccc(C2=NOC(c3cc(Cl)cc(Cl)c3)(C(F)(F)F)C2)cc1 (mixture of isomers) [2-008]
- insecticidal rate (rate of dead insects) (500 ppm): ≥ 80%

Structure (SMILES): CCC(=O)NC(C)c1ccc(C2=NOC(c3cc(Cl)cc(Cl)c3)(C(F)(F)F)C2)cc1 (mixture of isomers) [2-016]
- insecticidal rate (rate of dead insects) (100 ppm (*)): ≥ 80%

Structure (SMILES): CC(C)C(=O)NC(C)c1ccc(C2=NOC(c3cc(Cl)cc(Cl)c3)(C(F)(F)F)C2)cc1 (mixture of isomers) [2-017]
- insecticidal rate (rate of dead insects) (100 ppm (*)): ≥ 80%

Structure (SMILES): CC(NC(=O)C1CC1)c1ccc(C2=NOC(c3cc(Cl)cc(Cl)c3)(C(F)(F)F)C2)cc1 (mixture of isomers) [2-018]
- insecticidal rate (rate of dead insects) (100 ppm (*)): ≥ 80%

Structure (SMILES): CCCCC(=O)NC(C)c1ccc(C2=NOC(c3cc(Cl)cc(Cl)c3)(C(F)(F)F)C2)cc1 (mixture of isomers) [2-019]
- insecticidal rate (rate of dead insects) (500 ppm): ≥ 80%

Structure (SMILES): CC(NC(=O)C(C)(C)C)c1ccc(C2=NOC(c3cc(Cl)cc(Cl)c3)(C(F)(F)F)C2)cc1 (mixture of isomers) [2-020]
- insecticidal rate (rate of dead insects) (500 ppm): ≥ 80%

Structure (SMILES): CC(NC(=O)CC(F)(F)F)c1ccc(C2=NOC(c3cc(Cl)cc(Cl)c3)(C(F)(F)F)C2)cc1 (mixture of isomers) [2-021]
- insecticidal rate (rate of dead insects) (100 ppm (*)): ≥ 80%

Structure (SMILES): CC(NC(=O)CCCCl)c1ccc(C2=NOC(c3cc(Cl)cc(Cl)c3)(C(F)(F)F)C2)cc1 (mixture of isomers) [2-022]
- insecticidal rate (rate of dead insects) (100 ppm (*)): ≥ 80%

Structure (SMILES): N#CC(NC(=O)C1CC1)c1ccc(C2=NOC(c3cc(Cl)cc(Cl)c3)(C(F)(F)F)C2)cc1 (mixture of isomers) [2-027]
- insecticidal rate (rate of dead insects) (10 ppm (**)): ≥ 80%

Structure (SMILES): N#CC(NC(=O)CC(F)(F)F)c1ccc(C2=NOC(c3cc(Cl)cc(Cl)c3)(C(F)(F)F)C2)cc1 (mixture of isomers) [2-028]
- insecticidal rate (rate of dead insects) (10 ppm (**)): ≥ 80%

Structure (SMILES): CC1(C(=O)NCc2ccc(C3=NOC(c4cc(Cl)cc(Cl)c4)(C(F)(F)F)C3)cc2Cl)CC1(Cl)Cl (mixture of isomers) [2-065]
- insecticidal rate (rate of dead insects) (100 ppm (*)): ≥ 80%

Structure (SMILES): CC(C)C(=O)NC(C#N)c1ccc(C2=NOC(c3cc(Cl)cc(Cl)c3)(C(F)(F)F)C2)cc1 (mixture of isomers) [2-083]
- insecticidal rate (rate of dead insects) (10 ppm (**)): ≥ 80%

Structure (SMILES): CC(C)C(=O)NC(C(N)=O)c1ccc(C2=NOC(c3cc(Cl)cc(Cl)c3)(C(F)(F)F)C2)cc1 (mixture of isomers) [2-084]
- insecticidal rate (rate of dead insects) (500 ppm): ≥ 80%

Structure (SMILES): CC(C)C(=O)NC(C(N)=S)c1ccc(C2=NOC(c3cc(Cl)cc(Cl)c3)(C(F)(F)F)C2)cc1 (mixture of isomers) [2-085]
- insecticidal rate (rate of dead insects) (10 ppm (**)): ≥ 80%

Structure (SMILES): O=C(NC(c1ccc(C2=NOC(c3cc(Cl)cc(Cl)c3)(C(F)(F)F)C2)cc1)c1nccs1)C1CC1 (mixture of isomers) [2-086]
- insecticidal rate (rate of dead insects) (100 ppm (*)): ≥ 80%

Structure (SMILES): CC1CC1C(=O)NCc1ccc(C2=NOC(c3cc(Cl)cc(Cl)c3)(C(F)(F)F)C2)cc1Cl (mixture of isomers) [2-087]
- insecticidal rate (rate of dead insects) (10 ppm (**)): ≥ 80%

Structure (SMILES): CC1(C)CC1C(=O)NCc1ccc(C2=NOC(c3cc(Cl)c(Cl)c(Cl)c3)(C(F)(F)F)C2)cc1Cl (mixture of isomers) [2-157]
- insecticidal rate (rate of dead insects) (100 ppm (*)): ≥ 80%

Structure (SMILES): CC(NC(=O)CC(F)(F)F)c1ccc(C2=NOC(c3cc(Cl)c(Cl)c(Cl)c3)(C(F)(F)F)C2)cc1 (mixture of isomers) [2-168]
- insecticidal rate (rate of dead insects) (10 ppm (**)): ≥ 80%

Structure (SMILES): N#CC(NC(=O)CC(F)(F)F)c1ccc(C2=NOC(c3cc(Cl)c(Cl)c(Cl)c3)(C(F)(F)F)C2)cc1 (mixture of isomers) [2-169]
- insecticidal rate (rate of dead insects) (10 ppm (**)): ≥ 80%

Structure (SMILES): CC(NC(=O)CCC(F)(F)F)c1ccc(C2=NOC(c3cc(Cl)cc(Cl)c3)(C(F)(F)F)C2)cc1 (mixture of isomers) [2-173]
- insecticidal rate (rate of dead insects) (10 ppm (**)): ≥ 80%

Structure (SMILES): CC(NC(=O)CCC(F)(F)F)c1ccc(C2=NOC(c3cc(Cl)c(Cl)c(Cl)c3)(C(F)(F)F)C2)cc1 (mixture of isomers) [2-174]
- insecticidal rate (rate of dead insects) (10 ppm (**)): ≥ 80%

Structure (SMILES): O=C(NCc1ccc(C2=NOC(c3cc(Cl)c(Cl)c(Cl)c3)(C(F)(F)F)C2)cc1)C1CCOC1 (mixture of isomers) [2-177]
- insecticidal rate (rate of dead insects) (10 ppm (**)): ≥ 80%

Structure (SMILES): O=C(NCc1ccc(C2=NOC(c3cc(C(F)(F)F)cc(C(F)(F)F)c3)(C(F)(F)F)C2)cc1Cl)C1CCOC1 (mixture of isomers) [2-178]
- insecticidal rate (rate of dead insects) (10 ppm (**)): ≥ 80%

Structure (SMILES): O=C(NCc1ccc(C2=NOC(c3cc(Cl)c(Cl)c(Cl)c3)(C(F)(F)F)C2)cc1Cl)C1CCOC1 (mixture of isomers) [2-179]
- insecticidal rate (rate of dead insects) (10 ppm (**)): ≥ 80%

Structure (SMILES): O=C(NCc1ccc(C2=NOC(c3cc(Cl)c(Cl)c(Cl)c3)(C(F)(F)F)C2)cc1Br)C1CCOC1 (mixture of isomers) [2-180]
- insecticidal rate (rate of dead insects) (10 ppm (**)): ≥ 80%

Structure (SMILES): O=C(NCc1ccc(C2=NOC(c3cc(Cl)c(Cl)c(Cl)c3)(C(F)(F)F)C2)cc1[N+](=O)[O-])C1CCOC1 (mixture of isomers) [2-181]
- insecticidal rate (rate of dead insects) (10 ppm (**)): ≥ 80%

Structure (SMILES): CC(NC(=O)C1CCOC1)c1ccc(C2=NOC(c3cc(Cl)c(Cl)c(Cl)c3)(C(F)(F)F)C2)cc1 (mixture of isomers) [2-182]
- insecticidal rate (rate of dead insects) (100 ppm (*)): ≥ 80%

Structure (SMILES): CC[S+]([O-])CC(=O)NCc1ccc(C2=NOC(c3cc(Cl)cc(Cl)c3)(C(F)(F)F)C2)cc1Cl (mixture of isomers) [2-185]
- insecticidal rate (rate of dead insects) (10 ppm (**)): ≥ 80%

Structure (SMILES): CCC(=O)NC(C)c1ccc(C2=NOC(c3cc(C(F)(F)F)cc(C(F)(F)F)c3)(C(F)(F)F)C2)cc1 (mixture of isomers) [2-317]
- insecticidal rate (rate of dead insects) (10 ppm (**)): ≥ 80%

Structure (SMILES): CCCC(=O)NC(C)c1ccc(C2=NOC(c3cc(C(F)(F)F)cc(C(F)(F)F)c3)(C(F)(F)F)C2)cc1 (mixture of isomers) [2-320]
- insecticidal rate (rate of dead insects) (10 ppm (**)): ≥ 80%

Structure (SMILES): CC(C)C(=O)NC(C)c1ccc(C2=NOC(c3cc(C(F)(F)F)cc(C(F)(F)F)c3)(C(F)(F)F)C2)cc1 (mixture of isomers) [2-322]
- insecticidal rate (rate of dead insects) (10 ppm (**)): ≥ 80%

Structure (SMILES): N#CC(NC(=O)C1CC1)c1ccc(C2=NOC(c3cc(C(F)(F)F)cc(C(F)(F)F)c3)(C(F)(F)F)C2)cc1 (mixture of isomers) [2-325]
- insecticidal rate (rate of dead insects) (10 ppm (**)): ≥ 80%

Structure (SMILES): N#CC(NC(=O)CC1CC1)c1ccc(C2=NOC(c3cc(C(F)(F)F)cc(C(F)(F)F)c3)(C(F)(F)F)C2)cc1 (mixture of isomers) [2-329]
- insecticidal rate (rate of dead insects) (10 ppm (**)): ≥ 80%

Structure (SMILES): O=C(NCc1ccc(C2=NOC(c3cc(C(F)(F)F)cc(C(F)(F)F)c3)(C(F)(F)F)C2)cc1Br)C1CCOC1 (mixture of isomers) [2-332]
- insecticidal rate (rate of dead insects) (10 ppm (**)): ≥ 80%

Structure (SMILES): CC(NC(=O)C1CCOC1)c1ccc(C2=NOC(c3cc(C(F)(F)F)cc(C(F)(F)F)c3)(C(F)(F)F)C2)cc1 (mixture of isomers) [2-333]
- insecticidal rate (rate of dead insects) (10 ppm (**)): ≥ 80%

Structure (SMILES): CC(NC(=O)CC1CC1)c1ccc(C2=NOC(c3cc(C(F)(F)F)cc(C(F)(F)F)c3)(C(F)(F)F)C2)cc1 (mixture of isomers) [2-483]
- insecticidal rate (rate of dead insects) (100 ppm (*)): ≥ 80%

Structure (SMILES): CC(NC(=O)CC(F)(F)F)c1ccc(C2=NOC(c3cc(Cl)cc(C(F)(F)F)c3)(C(F)(F)F)C2)cc1 (mixture of isomers) [2-491]
- insecticidal rate (rate of dead insects) (10 ppm (**)): ≥ 80%

Structure (SMILES): CC(NC(=O)C1CCOC1)c1ccc(C2=NOC(c3cc(Cl)cc(C(F)(F)F)c3)(C(F)(F)F)C2)cc1 (mixture of isomers) [2-502]
- insecticidal rate (rate of dead insects) (10 ppm (**)): ≥ 80%

Structure (SMILES): N#CC(NC(=O)C1CCOC1)c1ccc(C2=NOC(c3cc(C(F)(F)F)cc(C(F)(F)F)c3)(C(F)(F)F)C2)cc1 (mixture of isomers) [2-503]
- insecticidal rate (rate of dead insects) (10 ppm (**)): ≥ 80%

Structure (SMILES): CCC=CC(=O)NCc1ccc(C2=NOC(c3cc(Cl)cc(Cl)c3)(C(F)(F)F)C2)cc1Cl (racemic) [1-079]
- insecticidal rate (rate of dead insects) (100 ppm (*)): ≥ 80%

Structure (SMILES): O=C(NCc1ccc(C2=NOC(c3cc(Cl)cc(Cl)c3)(C(F)(F)F)C2)cc1Cl)c1ccc(F)cc1F (racemic) [1-086]
- insecticidal rate (rate of dead insects) (100 ppm (*)): ≥ 80%

Structure (SMILES): CCNC(=O)NCc1ccc(C2=NOC(c3cc(Cl)cc(Cl)c3)(C(F)(F)F)C2)cc1Cl (racemic) [1-091]
- insecticidal rate (rate of dead insects) (100 ppm (*)): ≥ 80%

Structure (SMILES): CCN(CC)C(=O)NCc1ccc(C2=NOC(c3cc(Cl)cc(Cl)c3)(C(F)(F)F)C2)cc1Cl (racemic) [1-092]
- insecticidal rate (rate of dead insects) (500 ppm): ≥ 80%

Structure (SMILES): CC(C)NC(=O)NCc1ccc(C2=NOC(c3cc(Cl)cc(Cl)c3)(C(F)(F)F)C2)cc1Cl (racemic) [1-093]
- insecticidal rate (rate of dead insects) (10 ppm (**)): ≥ 80%

Structure (SMILES): FC(F)(F)C1(c2cc(Cl)cc(Cl)c2)CC(c2ccc(CNC(=S)NC3CC3)c(Cl)c2)=NO1 (racemic) [1-094]
- insecticidal rate (rate of dead insects) (500 ppm): ≥ 80%

Structure (SMILES): CCCC(=O)NCc1ccc(C2=NOC(c3cc(Cl)cc(Cl)c3)(C(F)(F)F)C2)cc1I (racemic) [1-095]
- insecticidal rate (rate of dead insects) (500 ppm): ≥ 80%

Structure (SMILES): O=C(NCc1ccc(C2=NOC(c3cc(Cl)cc(Cl)c3)(C(F)(F)F)C2)cc1I)C1CC1 (racemic) [1-096]
- insecticidal rate (rate of dead insects) (10 ppm (**)): ≥ 80%

Structure (SMILES): O=C(NCc1ccc(C2=NOC(c3cc(Cl)cc(Cl)c3)(C(F)(F)F)C2)cc1I)C(F)(F)F (racemic) [1-097]
- insecticidal rate (rate of dead insects) (500 ppm): ≥ 80%

Structure (SMILES): O=C(NCc1ccc(C2=NOC(c3cc(Cl)cc(Cl)c3)(C(F)(F)F)C2)cc1I)C(F)(F)C(F)(F)F (racemic) [1-098]
- insecticidal rate (rate of dead insects) (500 ppm): ≥ 80%

Structure (SMILES): Cc1cc(C2=NOC(c3cc(Cl)cc(Cl)c3)(C(F)(F)F)C2)ccc1CNC(=O)C(C)C (racemic) [1-104]
- insecticidal rate (rate of dead insects) (500 ppm): ≥ 80%

Structure (SMILES): CCC(=O)NCc1ccc(C2=NOC(c3cc(Cl)cc(Cl)c3)(C(F)(F)F)C2)cc1-c1cccc2ccccc12 (racemic) [1-117]
- insecticidal rate (rate of dead insects) (500 ppm): ≥ 80%

Structure (SMILES): CCC(=O)NCc1ccc(C2=NOC(c3cc(Cl)cc(Cl)c3)(C(F)(F)F)C2)cc1-c1cccs1 (racemic) [1-118]
- insecticidal rate (rate of dead insects) (500 ppm): ≥ 80%

Structure (SMILES): CCC(=O)NCc1ccc(C2=NOC(c3cc(Cl)cc(Cl)c3)(C(F)(F)F)C2)cc1-c1ccc(Cl)nc1 (racemic) [1-119]
- insecticidal rate (rate of dead insects) (500 ppm): ≥ 80%

Structure (SMILES): CC(=O)NCc1ccc(C2=NOC(c3cc(Cl)cc(Cl)c3)(C(F)(F)F)C2)cc1 (racemic) [2-001]
- insecticidal rate (rate of dead insects) (100 ppm (*)): ≥ 80%

Structure (SMILES): CCC(=O)NCc1ccc(C2=NOC(c3cc(Cl)cc(Cl)c3)(C(F)(F)F)C2)cc1 (racemic) [2-002]
- insecticidal rate (rate of dead insects) (100 ppm (*)): ≥ 80%
